Where a name gives a salt, the structure may show the parent alone. This is one part of the list. Single values are uncertain, as repeats are few or missing.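 The three strains are clinical Candida auris isolates from the CDC resistance isolate bank, from clades III, IV and I, grown in RPMI-1640 at 35°C. Growth is background-corrected OD600 relative to vehicle-only wells on the same plate; a hit meant over 50% inhibition in at least two strains plus a plate-corrected B-score above 0.1.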
Columns and labels:
Assay in all cases: growth relative to vehicle control (OD600 ratio) (fraction); higher = less inhibition
Settings in all cases: 24 h
C. auris AR-384 = tested on: C. auris AR-384
C. auris AR-386 = tested on: C. auris AR-386
C. auris AR-387 = tested on: C. auris AR-387

Compound `COc1cc(/C=C/C(=O)CC(=O)/C=C/c2ccc(O)c(OC)c2)ccc1O` [Curcumin] has a growth (C. auris AR-384; 1 µM) of 0.59, a growth (C. auris AR-384; 10 µM) of 0.53 and a growth (C. auris AR-386; 1 µM) of 0.78. For the same compound, the growth (C. auris AR-386; 10 µM) was 1.05, the growth (C. auris AR-387; 1 µM) was 0.88 and the growth (C. auris AR-387; 10 µM) was 1.03.

`CCCCC(CC)COC(=O)C(C#N)=C(c1ccccc1)c1ccccc1` (configuration not stated) [Octocrylene] was tested, and the growth (C. auris AR-384; 1 µM) was 1.41, the growth (C. auris AR-384; 10 µM) was 0.83 and the growth (C. auris AR-386; 1 µM) was 0.86. The growth (C. auris AR-386; 10 µM) was 0.74, the growth (C. auris AR-387; 1 µM) was 0.75 and the growth (C. auris AR-387; 10 µM) was 0.89.

For `COc1ccc(-c2nc3cc(C4=NNC(=O)CC4C)ccc3[nH]2)cc1` (configuration not stated) [Pimobendan], the growth (C. auris AR-384; 1 µM) was 1.21, the growth (C. auris AR-384; 10 µM) was 1.28 and the growth (C. auris AR-386; 1 µM) was 1.3. The growth (C. auris AR-386; 10 µM) was 0.78, the growth (C. auris AR-387; 1 µM) was 0.87 and the growth (C. auris AR-387; 10 µM) was 0.83.

Compound `N=C(N)NS(=O)(=O)c1ccc(N)cc1` [Sulfaguanidine] has a growth (C. auris AR-384; 1 µM) of 0.84, a growth (C. auris AR-384; 10 µM) of 0.77 and a growth (C. auris AR-386; 1 µM) of 0.75. The growth (C. auris AR-386; 10 µM) was 0.78, the growth (C. auris AR-387; 1 µM) was 0.79 and the growth (C. auris AR-387; 10 µM) was 0.67.

`O[C@@H](COc1cccc2ncccc12)CN1CCN(C2c3ccccc3[C@@H]3[C@H](c4ccccc42)C3(F)F)CC1` (some centres not stated) was tested, and the growth (C. auris AR-384; 1 µM) was 0.81, the growth (C. auris AR-384; 10 µM) was 0.93 and the growth (C. auris AR-386; 1 µM) was 0.82. The growth (C. auris AR-386; 10 µM) was 0.86, the growth (C. auris AR-387; 1 µM) was 0.82 and the growth (C. auris AR-387; 10 µM) was 1.07.

`O=c1[nH]c(=O)n([C@H]2C[C@H](O)[C@@H](CO)O2)cc1C(F)(F)F` [Trifluridine] gave a growth (C. auris AR-384; 1 µM) of 0.88, a growth (C. auris AR-384; 10 µM) of 0.89 and a growth (C. auris AR-386; 1 µM) of 0.97. For the same compound, the growth (C. auris AR-386; 10 µM) was 0.81, the growth (C. auris AR-387; 1 µM) was 0.95 and the growth (C. auris AR-387; 10 µM) was 0.86.

For `CCCN[C@H]1CCc2nc(N)sc2C1` [Pramipexole], the growth (C. auris AR-384; 1 µM) was 1.13, the growth (C. auris AR-384; 10 µM) was 1.23 and the growth (C. auris AR-386; 1 µM) was 1.02. For the same compound, the growth (C. auris AR-386; 10 µM) was 1.27, the growth (C. auris AR-387; 1 µM) was 1.37 and the growth (C. auris AR-387; 10 µM) was 1.16.

In the case of `C(=C\c1ccccc1)/CN1CCN(C(c2ccccc2)c2ccccc2)CC1` [Cinnarizine], the growth (C. auris AR-384; 1 µM) is reported as 1, the growth (C. auris AR-384; 10 µM) is reported as 0.77 and the growth (C. auris AR-386; 1 µM) is reported as 0.77. The growth (C. auris AR-386; 10 µM) was 0.71, the growth (C. auris AR-387; 1 µM) was 0.6 and the growth (C. auris AR-387; 10 µM) was 0.84.

Compound `CC(=O)NC(CC(C)C)C(=O)O` (configuration not stated) [Acetylleucine] has a growth (C. auris AR-384; 1 µM) of 0.78, a growth (C. auris AR-384; 10 µM) of 0.71 and a growth (C. auris AR-386; 1 µM) of 0.85. The growth (C. auris AR-386; 10 µM) was 1.06, the growth (C. auris AR-387; 1 µM) was 0.75 and the growth (C. auris AR-387; 10 µM) was 0.89.

For `CO[C@H]1/C=C/O[C@@]2(C)Oc3c(C)c(O)c4c(O)c(c(/C=N/N5CCN(C)CC5)c(O)c4c3C2=O)NC(=O)/C(C)=C\C=C\[C@H](C)[C@H](O)[C@@H](C)[C@@H](O)[C@@H](C)[C@H](OC(C)=O)[C@@H]1C` [Rifampin], the growth (C. auris AR-384; 1 µM) was 1.16, the growth (C. auris AR-384; 10 µM) was 0.91 and the growth (C. auris AR-386; 1 µM) was 0.8. The growth (C. auris AR-386; 10 µM) was 0.77, the growth (C. auris AR-387; 1 µM) was 1.02 and the growth (C. auris AR-387; 10 µM) was 0.9.

`Cc1cc(NS(=O)(=O)c2ccc(N)cc2)no1` [Sulfamethoxazole] showed a growth (C. auris AR-384; 1 µM) of 1.04, a growth (C. auris AR-384; 10 µM) of 1.06 and a growth (C. auris AR-386; 1 µM) of 1.13. The growth (C. auris AR-386; 10 µM) was 0.82, the growth (C. auris AR-387; 1 µM) was 0.97 and the growth (C. auris AR-387; 10 µM) was 0.92.

`CC(C)(C)NC[C@H](O)COc1nsnc1N1CCOCC1` [Timolol Maleate] was tested, and the growth (C. auris AR-384; 1 µM) was 0.89, the growth (C. auris AR-384; 10 µM) was 1.06 and the growth (C. auris AR-386; 1 µM) was 1.16. It also gave a growth (C. auris AR-386; 10 µM) of 0.92, a growth (C. auris AR-387; 1 µM) of 0.95 and a growth (C. auris AR-387; 10 µM) of 1.

With `N#CC[C@H](C1CCCC1)n1cc(-c2ncnc3[nH]ccc23)cn1` the growth (C. auris AR-384; 1 µM) was 1.09, the growth (C. auris AR-384; 10 µM) was 0.88 and the growth (C. auris AR-386; 1 µM) was 0.77. The growth (C. auris AR-386; 10 µM) was 1.08, the growth (C. auris AR-387; 1 µM) was 0.91 and the growth (C. auris AR-387; 10 µM) was 0.95.

For `CN1CCN2c3ccccc3Cc3ccccc3C2C1` (configuration not stated) [Mianserin HCl], the growth (C. auris AR-384; 1 µM) was 0.86, the growth (C. auris AR-384; 10 µM) was 1.27 and the growth (C. auris AR-386; 1 µM) was 1.09. For the same compound, the growth (C. auris AR-386; 10 µM) was 0.54, the growth (C. auris AR-387; 1 µM) was 0.84 and the growth (C. auris AR-387; 10 µM) was 0.7.

In the case of `O=C(O)/C=C/c1ccc(Cn2ccnc2)cc1` [Ozagrel], the growth (C. auris AR-384; 1 µM) is reported as 0.71, the growth (C. auris AR-384; 10 µM) is reported as 0.92 and the growth (C. auris AR-386; 1 µM) is reported as 0.62. For the same compound, the growth (C. auris AR-386; 10 µM) was 0.85, the growth (C. auris AR-387; 1 µM) was 0.99 and the growth (C. auris AR-387; 10 µM) was 0.98.

`CNC[C@H](O)c1ccc(O)c(O)c1` [Epinephrine HCl] showed a growth (C. auris AR-384; 1 µM) of 0.79, a growth (C. auris AR-384; 10 µM) of 0.88 and a growth (C. auris AR-386; 1 µM) of 0.92. It also gave a growth (C. auris AR-386; 10 µM) of 0.78, a growth (C. auris AR-387; 1 µM) of 1.06 and a growth (C. auris AR-387; 10 µM) of 1.02.

With `C[C@](N)(Cc1ccc(O)c(O)c1)C(=O)O` [Methyldopa] the growth (C. auris AR-384; 1 µM) was 0.91, the growth (C. auris AR-384; 10 µM) was 0.62 and the growth (C. auris AR-386; 1 µM) was 0.72. It also gave a growth (C. auris AR-386; 10 µM) of 1.28, a growth (C. auris AR-387; 1 µM) of 0.85 and a growth (C. auris AR-387; 10 µM) of 0.84.

`O=C(c1ccccc1)c1ccc2n1CCC2C(=O)O` (configuration not stated) [Ketorolac] gave a growth (C. auris AR-384; 1 µM) of 0.67, a growth (C. auris AR-384; 10 µM) of 0.67 and a growth (C. auris AR-386; 1 µM) of 0.72. For the same compound, the growth (C. auris AR-386; 10 µM) was 0.74, the growth (C. auris AR-387; 1 µM) was 0.91 and the growth (C. auris AR-387; 10 µM) was 0.98.

With `CCCCN1CCCC[C@H]1C(=O)Nc1c(C)cccc1C` [Levobupivacaine HCl] the growth (C. auris AR-384; 1 µM) was 0.99, the growth (C. auris AR-384; 10 µM) was 0.93 and the growth (C. auris AR-386; 1 µM) was 1.23. For the same compound, the growth (C. auris AR-386; 10 µM) was 1.22, the growth (C. auris AR-387; 1 µM) was 1.31 and the growth (C. auris AR-387; 10 µM) was 1.48.

Work on `Cc1cc2c(cc1CC(=O)c1sccc1S(=O)(=O)Nc1onc(C)c1Cl)OCO2` [Sitaxentan sodium] yielded a growth (C. auris AR-384; 1 µM) of 0.81, a growth (C. auris AR-384; 10 µM) of 0.69 and a growth (C. auris AR-386; 1 µM) of 0.75. It also gave a growth (C. auris AR-386; 10 µM) of 0.93, a growth (C. auris AR-387; 1 µM) of 0.72 and a growth (C. auris AR-387; 10 µM) of 0.72.

`CC(C)n1c(/C=C/C(O)CC(O)CC(=O)O)c(-c2ccc(F)cc2)c2ccccc21` (configuration not stated) [Fluvastatin Sodium] gave a growth (C. auris AR-384; 1 µM) of 0.76, a growth (C. auris AR-384; 10 µM) of 0.84 and a growth (C. auris AR-386; 1 µM) of 0.66. It also gave a growth (C. auris AR-386; 10 µM) of 1.04, a growth (C. auris AR-387; 1 µM) of 0.74 and a growth (C. auris AR-387; 10 µM) of 0.68.

`CO[C@H]1/C=C/O[C@@]2(C)Oc3c(C)c(O)c4c(O)c(c(/C=N/N5CCN(C6CCCC6)CC5)c(O)c4c3C2=O)NC(=O)/C(C)=C\C=C\[C@H](C)[C@H](O)[C@@H](C)[C@@H](O)[C@@H](C)[C@H](OC(C)=O)[C@@H]1C` [Rifapentine] gave a growth (C. auris AR-384; 1 µM) of 0.8, a growth (C. auris AR-384; 10 µM) of 0.9 and a growth (C. auris AR-386; 1 µM) of 0.95. The growth (C. auris AR-386; 10 µM) was 0.95, the growth (C. auris AR-387; 1 µM) was 0.95 and the growth (C. auris AR-387; 10 µM) was 1.06.

Reference: the supplement of paper PMC10470496
